Measurements from PubChem BioAssay AID493014 (National Center for Advancing Translational Sciences (NCATS), 2011).
Hit rate of the full screen: of about 340,000 compounds, about 170 (0.05%) were called active. The shares of active, inactive and inconclusive entries below differ from those in the screen. Calls come from the whole dose curve; as a rule, active = well fitted inhibition curve with a large enough effect in the signal ratio, with a control signal flat (not every such curve was filed as active); inconclusive = small, poorly fitted or top-dose-only effect, or effect the other way, or a change in a side signal; inactive = flat fitted curve, though single readings scatter; the % refers to the signal ratio. Potencies of inconclusive entries are doubtful fits and often do not repeat.

Assay: qHTS Assay to Find Inhibitors of Chronic Active B-Cell Receptor Signaling;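 for activity change, negative = inhibition: plate controls were basal doxycycline-induced cells for no effect and cells given 10 µM MG132 for full effect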
Details: ABC-DLBCL IkBa-CBG/CBR reporter, luminescence ratio (green luciferase fused to IkBa over red control in TMD8 lymphoma cells), 4 h; activity change, negative = inhibition: at 46.1 µM (top of the series)
Procedure, shortened: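 Concentration-response series (up to 46 uM) were applied to TMD8 dual-reporter cells for 4 h at 37C with doxycycline. Green/red ratio, after filter-overlap correction, defined %Activity; red signal alone was normalised to basal cells and zero luminescence.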
Potency is the fitted concentration of half-maximal effect.

Compound | activity change, negative = inhibition | Potency
COc1ccc(Br)cc1C(=O)N/N=C/c1cccnc1 | inactive | –
Cc1nc(N2CCOCC2)c2c(C)c(C(=O)Nc3ccc(C(F)(F)F)cc3)sc2n1 | inconclusive: 16.4% | –
O=C(Nc1cc(Br)ccc1O)c1cnn2c(C(F)F)cc(C3CC3)nc12 | inconclusive: -6.09% | –
Cc1ccc2cc(CN(Cc3ccc4c(c3)OCO4)Cc3nnnn3Cc3ccco3)c(=O)[nH]c2c1C | inconclusive: -3.92% | –
Cc1ccc(-n2c(SCC(=O)NCC3CCCO3)nc3n[nH]c(C)c3c2=N)cc1Cl (stereo not given) | – | inconclusive: 23.1 µM [falling, partial curve, poor fit]
COC(=O)c1c(O)cc(C(C)(C)C)n(-c2ccc(F)cc2)c1=O | inactive | –
Cc1ccc(C2CCN(C(=O)Nc3ccc(F)cc3)C2)cc1 (stereo not given) | – | inconclusive: 1.78 µM [falling, partial curve, poor fit]
CN(c1ccc(OCC(=O)OCC(=O)Nc2ccc(OC(F)F)cc2)cc1)S(=O)(=O)c1cccs1 | inactive | –
CC(=O)CCCCn1c(=O)c2c(ncn2C)n(C)c1=O | inconclusive: 1.34% | –
COc1ccc(NC(=O)c2cc3ccccc3o2)cc1 | – | inconclusive: 22.4 µM [falling, single point]
C=CCNC(=O)/C(C#N)=C/c1ccc(OS(=O)(=O)c2ccc(C)cc2)c(OC)c1 | – | inconclusive: 29.1 µM [falling, single point]
CCN(CC)S(=O)(=O)c1ccc2oc(SCC(=O)Nc3cc(C)on3)nc2c1 | – | inconclusive: 18.4 µM [falling, single point]
CCOc1ccc(C(=O)OC(C)C(=O)N2CCN(Cc3ccccc3)CC2)cc1 (stereo not given) | inactive | –
Cc1cc(C(F)(F)F)c(C#N)c(SCC(=O)NC(C)(C)C)n1 | inconclusive: -1.13% | –
Cc1cc(NC(=O)CCC(=O)N(c2ccc(F)cc2)C(C(=O)NC2CCCC2)c2ccncc2)no1 (stereo not given) | inconclusive: 3.19% | –
Cc1ccc(O)c(C(=O)c2cnc3c(c2)COc2ccccc2-3)c1 | – | inconclusive: 0.731 µM [rising, full curve, poor fit]
CC(=O)Nc1ccc(Sc2ccccc2C(=O)O)c(C(=O)O)c1 | inconclusive: 2.93% | –
CSc1ccccc1OCc1cc(C(=O)N(C)CCn2nc(C)cc2C)no1 | inactive | –
Fc1ccc(CCNC(=S)Nc2ccc(F)c(Cl)c2)cc1 | inconclusive: 1.58% | –
Cc1ccc([C@H]2C(C(=O)O)=CC[C@@H](c3ccc(C)cc3)N2S(=O)(=O)c2ccc(C)cc2)cc1 | inactive | –
CCc1ccccc1NC(=O)c1cc(-c2cccs2)on1 | – | inconclusive: 31.6 µM [rising, single point]
Cc1nc(NC(=O)/C=C/c2ccccc2)sc1C(=O)Nc1cccc(Cl)c1 | – | inconclusive: 20.6 µM [falling, partial curve]
CSc1nnc(-c2ccccc2)n1N | inconclusive: 2.65% | –
CC1(C)c2ccccc2-c2nc3ccccc3cc2C1O (stereo not given) | inconclusive: -4.1% | –
CC(=O)Nc1ccc(C(=O)OCC(=O)N2CCN(C(=O)c3ccco3)CC2)cc1 | inconclusive: 1.13% | –

Compound | activity change, negative = inhibition | Potency
C=CSc1sc(Cl)c(N2CCOCC2)c1[N+](=O)[O-] | – | inconclusive: 22.4 µM [falling, single point]
c1ccc(-c2cnc(-c3ccccc3)nc2)cc1 | inconclusive: 14.4% | –
CNC(=S)N/N=C/c1cn(CCOc2cccc(OC)c2)c2ccccc12 | – | inconclusive: 18.4 µM [falling, partial curve, poor fit]
COc1cccc(NC(=O)c2cnc(SCC(=O)N3CCOCC3)n(C)c2=O)c1 | – | inconclusive: 3.98 µM [falling, full curve]
COc1ccc(NC(=O)C(=O)N/N=C/c2cc(C)n(-c3cccc(Cl)c3Cl)c2C)c(OC)c1 | – | inconclusive: 25.9 µM [falling, single point]
CCCCOC(=O)c1ccc(NC(=O)C(=O)CC(=O)c2ccc(OC)cc2)cc1 | inactive | –
COc1ccc(NC(=O)C#Cc2ccccc2)cc1OC | – | inconclusive: 17.8 µM [falling, partial curve, poor fit]
COc1ccc2c(c1)-c1ccccc1S(=O)(=O)N2C(C)=O | inconclusive: 5.54% | –
O=c1/c(=C/c2ccccn2)sc2n1CN(c1ccccc1)CN=2 | inconclusive: 0.73% | –
O=[N+]([O-])c1cc(Cl)ccc1N1CCCC1 | inactive | –
Cc1ccc(CN2CCNC(=O)C2CC(=O)O)o1 (stereo not given) | inconclusive: 11.1% | –
N#Cc1ccc(N2Cc3ccccc3C2=NC(=O)c2cccnc2Cl)cc1 | inconclusive: 1.96% | –
CC(C)Cc1nnc(NC(=O)CCC(=O)N2CCN(c3ccc([N+](=O)[O-])cc3)CC2)s1 | inconclusive: 0.695% | –
CCc1ccc(C2=CSC3=NCCN23)cc1 | inactive | –
Cc1ccc2nc(NC(=O)C3CCN(S(=O)(=O)c4cccnc4)CC3)sc2c1 | inconclusive: 13.1% | –
Cc1c(NC(=O)CN2C(=O)c3ccccc3S2(=O)=O)c(=O)n(-c2ccccc2)n1C | – | inconclusive: 29.1 µM [falling, single point]
N/C(=N\OC(=O)c1ccc(F)cc1)c1ccccc1 | – | inconclusive: 17.8 µM [falling, single point]
CC1CCc2cc(F)ccc2N1C(=O)CSc1nnc2c(n1)[nH]c1ccccc12 (stereo not given) | inactive | –
Cc1ccc(Nc2nnc(SCC3CCCCO3)s2)cc1 (stereo not given) | inconclusive: -11.4% | –
COc1ccc(C2(CNC(=O)c3ccc(OC)c([N+](=O)[O-])c3)CCCCC2)cc1OC | inactive | –
COc1cccc(CN2CCN(Cc3cccc4c3OCO4)CC2CCO)c1 (stereo not given) | – | inconclusive: 35.5 µM [rising, single point]
CN(C)S(=O)(=O)N1CCCC(C(=O)c2ccc(-c3ccccc3)c(F)c2)C1 (stereo not given) | inconclusive: 10.1% | –
CC(C)NC(=O)CSc1nc2ccccc2n1CC(=O)N(C(C)C)C(C)C | inconclusive: -22.8% | –
O=C(O)c1ccc(N2C(=O)c3cccc4cccc(c34)C2=O)cc1 | – | inconclusive: 22.4 µM [falling, single point]
COC(=O)c1ccc(NC(=O)C(=O)N2CCN(C(=S)Nc3cccc(C)c3C)CC2)cc1 | inconclusive: 1.35% | –

Compound | activity change, negative = inhibition | Potency
CCCCc1c(C)nc2ccc(OC)cc2c1SCCC(=O)O | inconclusive: 6.34% | –
COc1cccc(C2=NC(C)(C)NC(c3ccccc3O)C2)c1 (stereo not given) | – | inconclusive: 35.5 µM [falling, single point]
Cc1cc(O)c(NC(=O)c2cc([N+](=O)[O-])ccc2Cl)cc1C | – | inconclusive: 14.1 µM [falling, partial curve]
CCOC(=O)N1CCN(C(=O)c2oc3ccc(S(=O)(=O)N4CC(C)CC(C)C4)cc3c2C)CC1 (stereo not given) | inactive | –
COc1ccc(OC)c(-c2cc(C(=O)NC3CCCC3)c3ccccc3n2)c1 | inconclusive: -0.783% | –
Cc1ccc(NC(=O)COc2ccccc2C(N)=O)cc1S(=O)(=O)N1CCCCCC1 | inconclusive: -8.04% | –
COCCn1nnnc1C(c1ccc(OC)cc1)N1CCN(c2ccccc2F)CC1 (stereo not given) | inconclusive: 11.4% | –
C=CC[C@H](CC(=O)N[C@H](CO)Cc1ccccc1)C(=O)N[C@@H](COC(=O)[C@@H](CC=C)CC(=O)OC(C)(C)C)Cc1c[nH]c2ccccc12 | inactive | –
CCOc1cccc2cc(-c3csc(NC(=O)CCC(=O)NCCN4CCCCC4C)n3)c(=O)oc12 (stereo not given) | – | inconclusive: 0.501 µM [falling, partial curve, poor fit]
CN(C)c1ccc(/C=N/NC(=O)c2ccc(Cl)cc2)cc1 | – | inconclusive: 1.41 µM [falling, partial curve, poor fit]
Cn1cnnc1SCc1ccc(C(=O)NN)cc1 | – | inconclusive: 35.5 µM [falling, partial curve, poor fit]
CN(C)C(=O)CSc1n[nH]c(=O)n1CCc1ccccc1 | inconclusive: -18.7% | –
COc1ccc(OCc2cc(C(=O)N3C[C@H]4CC[C@H]3C4)no2)c(Cl)c1 | inconclusive: -19.2% | –
Cc1cccc(N2CCN(C(=O)c3ccc4c(c3)c(C)c(C)n4C)CC2C)c1 (stereo not given) | inconclusive: 0.268% | –
Cc1ccn2cc(C(=O)Nc3cccc(C(=O)NC4CC4)c3)nc2c1 | – | inconclusive: 23.1 µM [falling, partial curve]
Cc1ccc(Nc2nc(N)nc(-c3oc4ccccc4c3C)n2)cc1 | – | inconclusive: 0.631 µM [falling, partial curve, poor fit]
C/C(CC(=O)Nc1cccc(Br)c1)=N\NC(=O)c1ccc(O)cc1O | – | inconclusive: 22.4 µM [falling, single point]
COc1cc(S(=O)(=O)Nc2cccc(C)c2)ccc1N=Cc1c(C)[nH]n(-c2ccccc2)c1=O | inconclusive: 13.4% | –
Cc1ccc(S(=O)(=O)Cn2nnnc2CN2CCCC3(CCCCC3)C2)cc1 | inconclusive: 0.747% | –
O=[N+]([O-])c1ccc(/C=[N+](\[O-])[C@@H]2CCCC[C@@H]2/[N+]([O-])=C/c2ccc([N+](=O)[O-])o2)o1 | inactive | –
Cc1nc(CCNC(=O)C2CCC(=O)N(Cc3ccc(Cl)cc3)C2)sc1C (stereo not given) | inconclusive: 13.2% | –
Cc1cccn2cc(CCNC(=O)c3ccc(Br)o3)nc12 | – | inconclusive: 29.1 µM [falling, single point]
CN1CCCN(Cc2ccccc2C(F)(F)F)CC1 | inactive | –
O=S(=O)(c1ccc(NC(=S)N/N=C/c2ccc(N3CCOCC3)cc2)cc1)N1CCOCC1 | inconclusive: -18% | –
Cc1cccc(N(C(=O)C(F)(F)F)C(C(=O)NC2CCCCC2)c2cccs2)c1 (stereo not given) | – | inconclusive: 11.2 µM [falling, partial curve]

Rewritten with tabs: entries from further up.
Compound	activity change, negative = inhibition	Potency
Cc1ccc(NC(=O)COc2ccccc2C(N)=O)cc1S(=O)(=O)N1CCCCCC1	inconclusive: -8.04%	–
COCCn1nnnc1C(c1ccc(OC)cc1)N1CCN(c2ccccc2F)CC1 (stereo not given)	inconclusive: 11.4%	–
C=CC[C@H](CC(=O)N[C@H](CO)Cc1ccccc1)C(=O)N[C@@H](COC(=O)[C@@H](CC=C)CC(=O)OC(C)(C)C)Cc1c[nH]c2ccccc12	inactive	–
CCOc1cccc2cc(-c3csc(NC(=O)CCC(=O)NCCN4CCCCC4C)n3)c(=O)oc12 (stereo not given)	–	inconclusive: 0.501 µM [falling, partial curve, poor fit]
CN(C)c1ccc(/C=N/NC(=O)c2ccc(Cl)cc2)cc1	–	inconclusive: 1.41 µM [falling, partial curve, poor fit]
Cn1cnnc1SCc1ccc(C(=O)NN)cc1	–	inconclusive: 35.5 µM [falling, partial curve, poor fit]
CN(C)C(=O)CSc1n[nH]c(=O)n1CCc1ccccc1	inconclusive: -18.7%	–
COc1ccc(OCc2cc(C(=O)N3C[C@H]4CC[C@H]3C4)no2)c(Cl)c1	inconclusive: -19.2%	–
Cc1cccc(N2CCN(C(=O)c3ccc4c(c3)c(C)c(C)n4C)CC2C)c1 (stereo not given)	inconclusive: 0.268%	–
Cc1ccn2cc(C(=O)Nc3cccc(C(=O)NC4CC4)c3)nc2c1	–	inconclusive: 23.1 µM [falling, partial curve]
Cc1ccc(Nc2nc(N)nc(-c3oc4ccccc4c3C)n2)cc1	–	inconclusive: 0.631 µM [falling, partial curve, poor fit]
C/C(CC(=O)Nc1cccc(Br)c1)=N\NC(=O)c1ccc(O)cc1O	–	inconclusive: 22.4 µM [falling, single point]
COc1cc(S(=O)(=O)Nc2cccc(C)c2)ccc1N=Cc1c(C)[nH]n(-c2ccccc2)c1=O	inconclusive: 13.4%	–
Cc1ccc(S(=O)(=O)Cn2nnnc2CN2CCCC3(CCCCC3)C2)cc1	inconclusive: 0.747%	–
O=[N+]([O-])c1ccc(/C=[N+](\[O-])[C@@H]2CCCC[C@@H]2/[N+]([O-])=C/c2ccc([N+](=O)[O-])o2)o1	inactive	–
Cc1nc(CCNC(=O)C2CCC(=O)N(Cc3ccc(Cl)cc3)C2)sc1C (stereo not given)	inconclusive: 13.2%	–
